Source: paper PMC4877585
These are yes or no findings as the source states them, for the method shown. Binding seen in cells or lysates may run through a third protein. Some entries that bind do so weakly or less than the wild type.

Target: T1, phosphorylated p47^phox (mouse (endogenous in MLVECs)) (UniProt Q09014)
T1 sequence (chain, phosphorylated (detected with anti-phosphoserine antibody); positions not stated): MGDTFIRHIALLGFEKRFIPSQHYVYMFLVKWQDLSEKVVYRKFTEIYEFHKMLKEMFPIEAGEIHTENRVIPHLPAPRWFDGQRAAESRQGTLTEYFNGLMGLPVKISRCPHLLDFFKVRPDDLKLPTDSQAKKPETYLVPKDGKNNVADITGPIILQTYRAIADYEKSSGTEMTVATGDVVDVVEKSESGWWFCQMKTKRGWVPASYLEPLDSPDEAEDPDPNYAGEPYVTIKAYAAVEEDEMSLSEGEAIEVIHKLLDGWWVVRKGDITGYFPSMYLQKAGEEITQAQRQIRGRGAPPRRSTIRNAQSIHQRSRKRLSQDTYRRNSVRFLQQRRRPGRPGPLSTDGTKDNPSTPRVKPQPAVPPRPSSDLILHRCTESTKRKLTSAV
Experiment: co-IP; 600 ug total protein of MLVEC lysate (10 mM Tris pH 7.4, 150 mM NaCl, 5 mM EDTA, 1% Triton X-100) immunoprecipitated with anti-p47^phox antibody, blotted for gp91^phox and phosphoserine; cells treated with 0, 200 or 1500 ng/ml rmCIRP for 4 h or 200 ng/ml rmCIRP for up to 8 h

binding: binds
B1: gp91^phox (protein, UniProt Q61093 1-570)
chain: MGNWAVNEGLSIFVILVWLGLNVFLFINYYKVYDDGPKYNYTRKLLGSALALARAPAACLNFNCMLILLPVCRNLLSFLRGSSACCSTRIRRQLDRNLTFHKMVAWMIALHTAIHTIAHLFNVEWCVNARVGISDRYSIALSDIGDNENEEYLNFAREKIKNPEGGLYVAVTRLAGITGIVITLCLILIITSSTKTIRRSYFEVFWYTHHLFVIFFIGLAIHGAERIVRGQTAESLEEHNLDICADKIEEWGKIKECPVPKFAGNPPMTWKWIVGPMFLYLCERLVRFWRSQQKVVITKVVTHPFKTIELQMKKKGFKMEVGQYIFVKCPKVSKLEWHPFTLTSAPEEDFFSIHIRIVGDWTEGLFNACGCDKQEFQDAWKLPKIAVDGPFGTASEDVFSYEVVMLVGAGIGVTPFASILKSVWYKYCDNATSLKLKKIYFYWLCRDTHAFEWFADLLQLLETQMQERNNANFLSYNIYLTGWDESQANHFAVHHDEEKDVITGLKQKTLYGRPNWDNEFKTIASEHPNTTIGVFLCGPEALAETLSKQSISNSESGPRGVHFIFNKENF
